{"source": "ChEMBL document CHEMBL4316593", "about": "(Eur J Med Chem, 2019)", "type_in_all_cases": "cell-based", "conditions_in_all_cases": "U-87MG ATCC", "key": {"[1]": {"test": "Inhibition of RTK/PI3K/AKT/mTOR signaling in human U87 cells assessed as down regulation of WDR7 gene expression at cytotoxic IC50 measured after 48 hrs relative to control"}, "[2]": {"test": "Inhibition of RTK/PI3K/AKT/mTOR signaling in human U87 cells assessed as down regulation of RFC3 gene expression at cytotoxic IC50 measured after 48 hrs relative to control"}, "[3]": {"test": "Inhibition of RTK/PI3K/AKT/mTOR signaling in human U87 cells assessed as down regulation of FOSB gene expression at cytotoxic IC50 measured after 48 hrs relative to control"}, "[4]": {"test": "Inhibition of RTK/PI3K/AKT/mTOR signaling in human U87 cells assessed as down regulation of ZNF213 gene expression at cytotoxic IC50 measured after 48 hrs relative to control"}, "[5]": {"test": "Inhibition of RTK/PI3K/AKT/mTOR signaling in human U87 cells assessed as down regulation of GCH1 gene expression at cytotoxic IC50 measured after 48 hrs relative to control"}, "[6]": {"test": "Inhibition of RTK/PI3K/AKT/mTOR signaling in human U87 cells assessed as down regulation of RALY gene expression at cytotoxic IC50 measured after 48 hrs relative to control"}, "[7]": {"test": "Inhibition of RTK/PI3K/AKT/mTOR signaling in human U87 cells assessed as down regulation of C12orf49 gene expression at cytotoxic IC50 measured after 48 hrs relative to control"}, "[8]": {"test": "Inhibition of RTK/PI3K/AKT/mTOR signaling in human U87 cells assessed as down regulation of EMC2 gene expression at cytotoxic IC50 measured after 48 hrs relative to control"}, "[9]": {"test": "Inhibition of RTK/PI3K/AKT/mTOR signaling in human U87 cells assessed as down regulation of RNF25 gene expression at cytotoxic IC50 measured after 48 hrs relative to control"}, "[10]": {"test": "Inhibition of RTK/PI3K/AKT/mTOR signaling in human U87 cells assessed as down regulation of GPN3 gene expression at cytotoxic IC50 measured after 48 hrs relative to control"}, "[11]": {"test": "Inhibition of RTK/PI3K/AKT/mTOR signaling in human U87 cells assessed as down regulation of RAE1 gene expression at cytotoxic IC50 measured after 48 hrs relative to control"}, "[12]": {"test": "Inhibition of RTK/PI3K/AKT/mTOR signaling in human U87 cells assessed as down regulation of RNF6 gene expression at cytotoxic IC50 measured after 48 hrs relative to control"}, "[13]": {"test": "Inhibition of RTK/PI3K/AKT/mTOR signaling in human U87 cells assessed as down regulation of ERN1 gene expression at cytotoxic IC50 measured after 48 hrs relative to control"}, "[14]": {"test": "Inhibition of RTK/PI3K/AKT/mTOR signaling in human U87 cells assessed as down regulation of UBB gene expression at cytotoxic IC50 measured after 48 hrs relative to control"}, "[15]": {"test": "Inhibition of RTK/PI3K/AKT/mTOR signaling in human U87 cells assessed as down regulation of SCAF8 gene expression at cytotoxic IC50 measured after 48 hrs relative to control"}, "[16]": {"test": "Inhibition of RTK/PI3K/AKT/mTOR signaling in human U87 cells assessed as down regulation of PHF20L1 gene expression at cytotoxic IC50 measured after 48 hrs relative to control"}, "[17]": {"test": "Inhibition of RTK/PI3K/AKT/mTOR signaling in human U87 cells assessed as down regulation of CCDC6 gene expression at cytotoxic IC50 measured after 48 hrs relative to control"}, "[18]": {"test": "Inhibition of RTK/PI3K/AKT/mTOR signaling in human U87 cells assessed as down regulation of ALAS1 gene expression at cytotoxic IC50 measured after 48 hrs relative to control"}, "[19]": {"test": "Inhibition of RTK/PI3K/AKT/mTOR signaling in human U87 cells assessed as down regulation of KPNA2 gene expression at cytotoxic IC50 measured after 48 hrs relative to control"}, "[20]": {"test": "Inhibition of RTK/PI3K/AKT/mTOR signaling in human U87 cells assessed as up regulation of SLC10A5 gene expression at cytotoxic IC50 measured after 48 hrs relative to control"}, "[21]": {"test": "Inhibition of RTK/PI3K/AKT/mTOR signaling in human U87 cells assessed as up regulation of C1QL4 gene expression at cytotoxic IC50 measured after 48 hrs relative to control"}, "[22]": {"test": "Inhibition of RTK/PI3K/AKT/mTOR signaling in human U87 cells assessed as up regulation of KLK10 gene expression at cytotoxic IC50 measured after 48 hrs relative to control"}, "[23]": {"test": "Inhibition of RTK/PI3K/AKT/mTOR signaling in human U87 cells assessed as up regulation of NGEF gene expression at cytotoxic IC50 measured after 48 hrs relative to control"}, "[24]": {"test": "Inhibition of RTK/PI3K/AKT/mTOR signaling in human U87 cells assessed as up regulation of myotubularin related protein 11 gene expression at cytotoxic IC50 measured after 48 hrs relative to control"}, "[25]": {"test": "Inhibition of RTK/PI3K/AKT/mTOR signaling in human U87 cells assessed as up regulation of ST6 beta-galactoside alpha-2,6-sialyltransferase 1 gene expression at cytotoxic IC50 measured after 48 hrs relative to control"}, "[26]": {"test": "Inhibition of RTK/PI3K/AKT/mTOR signaling in human U87 cells assessed as up regulation of lon peptidase 1, mitochondrial gene expression at cytotoxic IC50 measured after 48 hrs relative to control"}, "[27]": {"test": "Inhibition of RTK/PI3K/AKT/mTOR signaling in human U87 cells assessed as up regulation of ATPase phospholipid transporting 8B2 gene expression at cytotoxic IC50 measured after 48 hrs relative to control"}, "[28]": {"test": "Inhibition of RTK/PI3K/AKT/mTOR signaling in human U87 cells assessed as up regulation of exportin for tRNA gene expression at cytotoxic IC50 measured after 48 hrs relative to control"}, "[29]": {"test": "Inhibition of RTK/PI3K/AKT/mTOR signaling in human U87 cells assessed as up regulation of NCK interacting protein with SH3 domain gene expression at cytotoxic IC50 measured after 48 hrs relative to control"}, "[30]": {"test": "Inhibition of RTK/PI3K/AKT/mTOR signaling in human U87 cells assessed as up regulation of RAB17, member RAS oncogene family gene expression at cytotoxic IC50 measured after 48 hrs relative to control"}, "[31]": {"test": "Inhibition of RTK/PI3K/AKT/mTOR signaling in human U87 cells assessed as up regulation of HEXIM1 gene expression at cytotoxic IC50 measured after 48 hrs relative to control"}, "[32]": {"test": "Inhibition of RTK/PI3K/AKT/mTOR signaling in human U87 cells assessed as up regulation of UQCRC2 gene expression at cytotoxic IC50 measured after 48 hrs relative to control"}}, "note": "The source gives many values for each of these; only a part stands here.", "data": [{"smiles": "CC(=O)C(=NNc1ccccc1C#N)C(C)=O", "values": [{"measurement": "log2FC", "setting": "[1]", "result": -1.52}, {"measurement": "log2FC", "setting": "[2]", "result": -1.31}, {"measurement": "log2FC", "setting": "[3]", "result": -1.27}, {"measurement": "log2FC", "setting": "[4]", "result": -1.26}, {"measurement": "log2FC", "setting": "[5]", "result": -1.17}, {"measurement": "log2FC", "setting": "[6]", "result": -0.987}, {"measurement": "log2FC", "setting": "[7]", "result": -0.942}, {"measurement": "log2FC", "setting": "[8]", "result": -0.881}, {"measurement": "log2FC", "setting": "[9]", "result": -0.843}, {"measurement": "log2FC", "setting": "[10]", "result": -0.736}, {"measurement": "log2FC", "setting": "[11]", "result": -0.729}, {"measurement": "log2FC", "setting": "[12]", "result": -0.714}, {"measurement": "log2FC", "setting": "[13]", "result": -0.653}, {"measurement": "log2FC", "setting": "[14]", "result": -0.639}, {"measurement": "log2FC", "setting": "[15]", "result": -0.574}, {"measurement": "log2FC", "setting": "[16]", "result": -0.561}, {"measurement": "log2FC", "setting": "[17]", "result": -0.432}, {"measurement": "log2FC", "setting": "[18]", "result": -0.388}, {"measurement": "log2FC", "setting": "[19]", "result": -0.331}, {"measurement": "log2FC", "setting": "[20]", "result": 3.31}, {"measurement": "log2FC", "setting": "[21]", "result": 3.05}, {"measurement": "log2FC", "setting": "[22]", "result": 2.19}, {"measurement": "log2FC", "setting": "[23]", "result": 2.03}, {"measurement": "log2FC", "setting": "[24]", "result": 1.28}, {"measurement": "log2FC", "setting": "[25]", "result": 1.28}, {"measurement": "log2FC", "setting": "[26]", "result": 1.25}, {"measurement": "log2FC", "setting": "[27]", "result": 1.09}, {"measurement": "log2FC", "setting": "[28]", "result": 0.998}, {"measurement": "log2FC", "setting": "[29]", "result": 0.976}, {"measurement": "log2FC", "setting": "[30]", "result": 0.88}, {"measurement": "log2FC", "setting": "[31]", "result": 0.596}, {"measurement": "log2FC", "setting": "[32]", "result": 0.557}]}]}
